This assay is described as follows: qHTS Assay for Lipid Storage Modulators in Drosophila S3 Cells.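 On cell number change: cells counted by Cell Tracker Red CMTPX staining in the red channel.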 The note with it: BODIPY lipid droplet fluorescence, 18-24 h; for cell number change: measured here: cell count max response, cells fed with added oleic acid. The essentials: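 Drosophila S3 cells loaded with oleic acid (400 uM, as added) and compounds at several concentrations; lipid droplets imaged by 488-nm laser-scanning cytometry, 500–530 nm intensity and object ratio to cell channel. Percent activity normalized to 20 uM Triacsin C.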
(In qHTS, concentration-response curves come from the screen itself.)

Setting [1] is: measured here: lipid fluorescence (Fed channel) AC50, cells fed with added oleic acid.
[2] abbreviates: measured here: cell number channel AC50, cells fed with added oleic acid.

These results are taken from PubChem BioAssay AID2685 (National Center for Advancing Translational Sciences (NCATS), 2010).

This is one part of the list. The main result of the screen is listed elsewhere. These columns were measured beside it and carry no call. Compounds called inactive in the main read-out are mostly missing here. Words in brackets tell the shape of the fitted curve; partial curves, single points and poor fits give uncertain potencies.

Regarding `O=C(N/N=C/c1ccncc1)c1cc(-c2ccc(Br)s2)[nH]n1`, the cell number change stood at 12.4%. In addition, the concentration at half-maximal activity (AC50) (commonly the concentration at which the activity in the assay is half-maximal) under setting [1] was 2.31 µM [rising, partial curve].
With `CCC1CSC(Nc2ccc(C(=O)/C=C/c3ccc(Br)cc3)cc2)=N1` (stereo not drawn), the cell number change is -8.07%. The AC50 under setting [1] was 16.4 µM [falling, single point].
On to `O=C(CCNc1cccc(C(F)(F)F)c1)c1ccco1`, for which the cell number change stood at 54.2%. Under setting [2], the AC50 was 16.4 µM [rising, partial curve].
On to `Cc1nc(SCC(=O)Nc2cc(Cl)ccc2[N+](=O)[O-])nc(C)c1C`, for which the cell number change is -28.6%. Also, the concentration at half-maximal activity (AC50) under setting [2] is 0.92 µM [falling, full curve, poor fit]. Further, the concentration at half-maximal activity (AC50) under setting [1] is 0.146 µM [falling, full curve, poor fit].
With `O=C(Nc1ccc(NC(=O)c2ccccc2Br)cc1)c1ccccc1`, the cell number change is 60.6%. Moreover, the AC50 under setting [2] is 32.6 µM [rising, partial curve, poor fit].
Consider `Cc1cc2c(OCC(O)CNC3CCCCC3)cccc2[nH]1` (stereo not drawn), for which the cell number change is -45.2%. Moreover, the AC50 under setting [2] is 29.1 µM [falling, single point]. Further, the AC50 under setting [1] is 20.6 µM [falling, single point].
Regarding `O=C(NC(=S)Nc1ccc(N2CCOCC2)c(Cl)c1)C(c1ccccc1)c1ccccc1`, the cell number change was -1.41%. Also, under setting [2], the concentration at half-maximal activity (AC50) is 0.103 µM [falling, full curve, poor fit]. The concentration at half-maximal activity (AC50) under setting [1] is 0.00517 µM [falling, full curve, poor fit].
For the compound `Cc1cc(NC(=O)CCC(=O)N(CC(=O)NC2CCCC2)c2ccc(Cl)cc2)no1`, the cell number change amounted to 11.5%. For the same compound, the AC50 under setting [1] is 29.1 µM [rising, single point].
`O=C(c1ccc(COc2ccccc2Cl)o1)N1CCCC1`: the cell number change was found to be 30.2%. The AC50 under setting [2] is 5.8 µM [rising, single point].
On to `O=C(O)c1ccc(Cl)c(N2C(=O)Nc3ccccc3N2O)c1`, for which the cell number change is -31.9%. Further, the concentration at half-maximal activity (AC50) under setting [2] was 4.11 µM [falling, full curve, poor fit]. For the same compound, under setting [1], the AC50 is 2.59 µM [falling, full curve].
On to `O=C(NCCc1ccccc1)C(=O)NCC1OCCN1S(=O)(=O)c1ccc(F)cc1` (stereo not drawn), for which the cell number change is 13%. The half-maximal activity concentration (AC50) under setting [1] is 4.11 µM [rising, full curve].
As to `NC(=O)c1c(NC(=O)COC(=O)CSc2nnc(-c3ccc(Cl)cc3)o2)sc2c1CCC2`, the cell number change came out at 23.1%. Further, under setting [1], the concentration at half-maximal activity (AC50) was 16.4 µM [rising, partial curve].
For `Cc1cnc(C(=O)OC(C)C(=O)Nc2ccc(Oc3ccccc3)cc2)cn1` (stereo not drawn), the cell number change stood at 1.04%. For the same compound, the AC50 under setting [1] is 14.6 µM [falling, partial curve].
Turning to `COc1ccccc1N1CCN(CC(=O)NCCc2ccc(S(N)(=O)=O)cc2)CC1`, the cell number change is 16.5%.
Regarding `C/C(=N\NC(=O)c1ccc(OC2OCCOC2Oc2ccc(C(=O)N/N=C(\C)c3ccncc3)cc2)cc1)c1ccncc1` (stereo not drawn), the cell number change was -0.905%. Also, under setting [2], the AC50 is 0.082 µM [falling, full curve, poor fit].
As for `Cc1ccc(-c2noc(CSc3nnc(CCc4ccccc4)n3-c3ccccc3)n2)cc1`, the cell number change was determined as 21.8%.
On to `O=C(Nc1ncc(Cc2cc(Cl)ccc2Cl)s1)c1ccc([N+](=O)[O-])cc1`, for which the cell number change is 2.3%. Besides, the AC50 under setting [1] was 0.58 µM [falling, single point].
As for `CC(C)OC(=O)c1c(NC(=O)C2CC=CCC2C(=O)O)sc2c1CCCCC2` (stereo not drawn), the cell number change is -15.7%.
For the compound `CN(CC(=O)NC1CCCCCC1)S(=O)(=O)c1cnc[nH]1`, the cell number change amounted to 1.55%. For the same compound, the AC50 under setting [1] is 4.11 µM [falling, partial curve, poor fit].
Consider `COc1ccc(N2CCN(C(=O)c3ccc4c(c3)CC(c3ccccc3)OC4=O)CC2)cc1` (stereo not drawn), for which the cell number change was -27.1%. The AC50 under setting [1] was 29.1 µM [falling, single point].
With `CC1CCCCC1NC(=O)CN1CCN(S(=O)(=O)c2ccc(Br)s2)CC1` (stereo not drawn), the cell number change turned out to be 8%. Moreover, the AC50 under setting [1] is 6.51 µM [falling, single point].
Turning to `Cc1nc(NCc2ccccc2)sc1C(=O)Nc1ccccc1`, the cell number change is 21.2%. Moreover, the AC50 under setting [1] was 29.1 µM [falling, single point].
Regarding `COc1ccc(C(=O)COC(=O)C(C)N2C(=O)C3C4CCC(C4)C3C2=O)cc1` (stereo not drawn), the cell number change is -9.52%.
In the case of `CCN(CC)S(=O)(=O)c1ccc(N2CCOCC2)c(NC(=O)c2ccc(=O)n(C)n2)c1`, the cell number change stood at 15.1%. The half-maximal activity concentration (AC50) under setting [2] was 2.31 µM [rising, single point]. Besides, under setting [1], the AC50 was 1.46 µM [rising, partial curve].
Consider `CCCCN1C(=O)C(=O)N(CC(=O)Nc2ccccc2C(=O)OCC)C1=O`, for which the cell number change was -2.55%. Also, the half-maximal activity concentration (AC50) under setting [1] is 35.5 µM [falling, partial curve, poor fit].
Turning to `CCN(Cc1ccccc1)C(=O)COc1cc(=O)n(CC)c2ccccc12`, the cell number change came out at 89.8%. For the same compound, under setting [2], the concentration at half-maximal activity (AC50) is 2.91 µM [rising, full curve]. Further, the AC50 under setting [1] was 2.59 µM [rising, full curve].
With `COc1ccc(NC(=O)CN(c2c(C)cccc2C)S(C)(=O)=O)cc1`, the cell number change is -22.8%. Also, the half-maximal activity concentration (AC50) under setting [2] was 0.0651 µM [falling, full curve, poor fit]. For the same compound, the AC50 under setting [1] is 2.06 µM [rising, full curve].
Regarding `C/C(=N\NC(=O)C1CCCN(S(=O)(=O)c2ccccc2)C1)c1ccccn1` (stereo not drawn), the cell number change was found to be 16.2%. Under setting [2], the concentration at half-maximal activity (AC50) was 0.517 µM [rising, full curve]. In addition, the AC50 under setting [1] was 0.291 µM [rising, partial curve, poor fit].
As to `Cc1nn(-c2ccccc2)c(C)c1C(=O)OC(C)C(=O)NC1CCCCC1C` (stereo not drawn), the cell number change is -16.1%.
Regarding `CN=C(Nc1ccc(C(=O)OC)cc1)SC1CC(=O)N(c2ccccc2F)C1=O` (stereo not drawn), the cell number change was 29.8%. Also, the half-maximal activity concentration (AC50) under setting [2] was 4.61 µM [rising, full curve, poor fit]. The concentration at half-maximal activity (AC50) under setting [1] was 18.4 µM [rising, single point].
Consider `O=C1CC(C(=O)Nc2cccc(F)c2)n2c(nc3ccccc32)N1` (stereo not drawn), for which the cell number change is -1.21%. In addition, the half-maximal activity concentration (AC50) under setting [1] is 2.06 µM [rising, single point].
As for `Cc1nn(C(C)C)c(C)c1[C@@H]1C[C@H]2CN(Cc3cccc(Cl)c3)C(=O)[C@]23CCCN13`, the cell number change was -7.48%. Further, the concentration at half-maximal activity (AC50) under setting [1] is 0.651 µM [falling, full curve, poor fit].
In the case of `COc1cccc(C(=O)OCCNC(=O)c2cccnc2)c1`, the cell number change was 13.3%.
Regarding `Cc1ccc(S(=O)(=O)N2CCCC(NC(=O)N3CCN(c4ccccc4)CC3)C2)cc1` (stereo not drawn), the cell number change turned out to be 13.5%. The AC50 under setting [1] was 8.2 µM [rising, partial curve].
In the case of `CCCCCN(C(=O)CCC(=O)OCC(=O)N1CCCCC1)c1c(N)n(CCCC)c(=O)[nH]c1=O`, the cell number change was found to be 23%. The half-maximal activity concentration (AC50) under setting [1] is 0.282 µM [rising, full curve, poor fit].
